Laboratory results reported in PMC11302887.

By UniProt entry, the sequences of proteins in these tests, tags left out.
UniProt Q9P2D3: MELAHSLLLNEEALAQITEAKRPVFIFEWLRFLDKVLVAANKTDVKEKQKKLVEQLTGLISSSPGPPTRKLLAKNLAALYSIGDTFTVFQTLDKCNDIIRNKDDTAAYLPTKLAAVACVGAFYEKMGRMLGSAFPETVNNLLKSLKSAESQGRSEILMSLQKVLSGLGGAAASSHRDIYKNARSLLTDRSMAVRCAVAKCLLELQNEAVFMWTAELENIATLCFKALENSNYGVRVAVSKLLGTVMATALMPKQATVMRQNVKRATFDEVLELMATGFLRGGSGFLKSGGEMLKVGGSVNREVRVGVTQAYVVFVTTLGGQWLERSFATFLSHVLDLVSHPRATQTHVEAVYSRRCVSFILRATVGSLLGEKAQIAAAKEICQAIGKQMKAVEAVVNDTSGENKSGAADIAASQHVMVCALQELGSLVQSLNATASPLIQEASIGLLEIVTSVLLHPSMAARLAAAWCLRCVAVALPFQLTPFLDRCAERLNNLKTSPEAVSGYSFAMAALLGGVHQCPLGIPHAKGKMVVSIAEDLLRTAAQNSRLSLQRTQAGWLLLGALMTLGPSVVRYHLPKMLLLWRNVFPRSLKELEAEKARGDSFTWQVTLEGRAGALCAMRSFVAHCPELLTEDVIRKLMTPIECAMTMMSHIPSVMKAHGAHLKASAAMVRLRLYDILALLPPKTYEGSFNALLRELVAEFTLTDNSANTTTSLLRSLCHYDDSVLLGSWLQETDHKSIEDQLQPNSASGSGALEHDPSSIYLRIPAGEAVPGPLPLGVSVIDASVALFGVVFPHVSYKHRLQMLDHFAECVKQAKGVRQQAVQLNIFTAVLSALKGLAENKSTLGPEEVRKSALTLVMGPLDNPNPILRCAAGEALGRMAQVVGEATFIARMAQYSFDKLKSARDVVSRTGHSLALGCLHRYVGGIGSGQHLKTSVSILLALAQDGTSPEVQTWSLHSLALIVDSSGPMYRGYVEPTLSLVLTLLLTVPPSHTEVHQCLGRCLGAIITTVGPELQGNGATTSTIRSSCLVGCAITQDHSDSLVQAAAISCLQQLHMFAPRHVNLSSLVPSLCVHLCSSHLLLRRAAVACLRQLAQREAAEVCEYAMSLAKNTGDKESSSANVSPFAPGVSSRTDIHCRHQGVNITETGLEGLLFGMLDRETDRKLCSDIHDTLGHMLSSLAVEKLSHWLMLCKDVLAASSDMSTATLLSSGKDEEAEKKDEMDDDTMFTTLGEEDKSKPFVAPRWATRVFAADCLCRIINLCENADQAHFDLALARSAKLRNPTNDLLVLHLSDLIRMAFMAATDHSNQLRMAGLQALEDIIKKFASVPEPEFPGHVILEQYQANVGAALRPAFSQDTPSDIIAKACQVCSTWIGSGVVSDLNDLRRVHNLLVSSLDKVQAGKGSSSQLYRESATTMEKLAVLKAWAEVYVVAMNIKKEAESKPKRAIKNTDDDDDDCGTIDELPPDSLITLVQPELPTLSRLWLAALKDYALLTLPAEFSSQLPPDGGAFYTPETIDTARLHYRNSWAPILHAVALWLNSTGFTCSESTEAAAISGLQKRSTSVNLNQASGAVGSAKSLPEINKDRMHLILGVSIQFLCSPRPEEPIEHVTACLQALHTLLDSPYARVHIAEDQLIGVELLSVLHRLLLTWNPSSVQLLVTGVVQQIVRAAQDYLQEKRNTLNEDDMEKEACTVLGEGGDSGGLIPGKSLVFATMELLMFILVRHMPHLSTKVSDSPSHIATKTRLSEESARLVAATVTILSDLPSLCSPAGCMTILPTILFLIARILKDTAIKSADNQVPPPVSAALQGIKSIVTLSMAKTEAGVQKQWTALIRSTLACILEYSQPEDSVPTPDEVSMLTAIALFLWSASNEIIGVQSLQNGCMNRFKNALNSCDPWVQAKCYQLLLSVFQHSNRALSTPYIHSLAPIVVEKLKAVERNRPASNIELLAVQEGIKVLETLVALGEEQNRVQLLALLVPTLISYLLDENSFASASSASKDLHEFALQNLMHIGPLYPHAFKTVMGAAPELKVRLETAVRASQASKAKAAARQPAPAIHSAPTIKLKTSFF
UniProt O00471: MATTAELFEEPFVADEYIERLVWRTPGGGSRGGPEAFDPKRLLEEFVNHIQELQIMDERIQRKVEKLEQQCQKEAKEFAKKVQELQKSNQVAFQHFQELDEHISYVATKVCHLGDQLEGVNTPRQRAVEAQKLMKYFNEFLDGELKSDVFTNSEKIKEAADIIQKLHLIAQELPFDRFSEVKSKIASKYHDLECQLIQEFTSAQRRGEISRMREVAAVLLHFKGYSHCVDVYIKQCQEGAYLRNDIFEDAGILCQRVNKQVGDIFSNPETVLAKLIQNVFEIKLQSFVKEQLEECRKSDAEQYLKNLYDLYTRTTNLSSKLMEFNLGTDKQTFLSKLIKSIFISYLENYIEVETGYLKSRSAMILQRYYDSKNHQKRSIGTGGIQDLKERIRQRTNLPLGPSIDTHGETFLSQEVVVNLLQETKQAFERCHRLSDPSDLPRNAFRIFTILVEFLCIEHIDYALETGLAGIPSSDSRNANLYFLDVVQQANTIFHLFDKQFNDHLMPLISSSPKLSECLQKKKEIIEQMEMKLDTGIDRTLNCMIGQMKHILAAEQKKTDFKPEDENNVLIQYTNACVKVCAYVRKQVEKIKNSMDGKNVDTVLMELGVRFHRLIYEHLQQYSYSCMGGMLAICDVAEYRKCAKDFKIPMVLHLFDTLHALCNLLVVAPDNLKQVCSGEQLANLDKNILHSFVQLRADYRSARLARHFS

Target: phosphorylated Protein kinase Cα (human (endogenous in platelets)) (UniProt P17252)
Experiment: affinity purification with mass spectrometry; immunoprecipitation with an anti-p-PKCα antibody from platelet membrane proteins of breast cancer and benign patients, isotypic IgG as negative control; SDS-PAGE, silver staining, differential bands excised and analysed by mass spectrometry; the named hits are among the proteins detected only in breast cancer platelets

binding	Substance
binds	HEAT repeat-containing 5B (from UniProt Q9P2D3 1-2071)
binds	SEC10 (from UniProt O00471 1-708)

These are yes or no findings as the source states them, for the method shown. Binding seen in cells or lysates may run through a third protein. These calls come from enrichment with a bait or labelling near it, and not all partners need be listed.
